# “And” between values parts separate entries of the source, which are not always exact repeats. Equal entries are not always repeated. The list shows a part of the results. Further columns of the screen follow, without active or inactive calls. Compounds called inactive in the main read-out are mostly missing here. The note in brackets gives the kind of curve behind each potency; many fits are weak.
# Experiment: Cell signaling CRE-BLA (Fsk stim)
# Conditions: CHO CRE-bla reporter (cAMP response element driving beta-lactamase), forskolin EC10, beta-lactamase ratio; measured here: 460 nm blue channel
# Summary of the method: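 The 460nm/530nm emission ratio after CCF4 loading defined %Activity, from which AC50 values were obtained. CRE-bla CHO cells received compound dilution series together with an EC10 level of NKH 477 for 3 hours at 37 degrees Celsius.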
row,Structure (SMILES),AC50
1,CC(C)CCn1c(N)c(C(=O)OCC2CCCO2)c2nc3ccccc3nc21 (stereo not given),"3.98 µM [rising, full curve]"
2,Cn1c(O)c(C=NC2CC3CCC2(C)C3(C)C)c(=O)[nH]c1=O (stereo not given),"10 µM [rising, single point]"
3,COc1ccc(C(c2ccc(OC)cc2)C(Cl)(Cl)Cl)cc1,"31.6 µM [falling, single point]"
4,CCOC(=O)c1c(C)n(Cc2ccccc2)c2ccc(OCC(O)Cn3nc(C)nc3C)cc12 (stereo not given),"1 µM [rising, full curve, poor fit]"
5,CCOc1cc(C=O)ccc1O,"31.6 µM [rising, partial curve]"
6,Cc1cc2c(C(F)(F)F)cc(=O)oc2c2c1NCCC2,"3.98 µM [rising, partial curve]"
7,O=c1c2ccccc2nc(-c2ccco2)n1-c1cccnc1,"20 µM [rising, single point]"
8,CC1=NN=C(c2ccc(N)cc2)c2cc3c(cc2C1)OCO3,"31.6 µM [falling, single point]"
9,CN1C(=O)C(Cc2cccc3ccccc23)C(=O)N(C)C1=O,"0.398 µM [rising, partial curve, poor fit]"
10,CCCCCn1c(=O)c(C(=O)NCc2ccccn2)c(O)c2ccccc21,"12.6 µM [rising, partial curve]"
11,CN1C(=O)N(C)C(=O)C2(Cc3cc(N)ccc3N3CCN(c4ccccc4F)CC32)C1=O (stereo not given),"5.01 µM [falling, partial curve]"
12,C[C@]12C/C(=C/O)C(=O)C[C@@H]1CC[C@@H]1[C@@H]2CC[C@@]2(C)[C@H]1CC[C@]2(C)O,"12.6 µM [rising, partial curve]"
13,CC12CCCCC1N(O)CN2O (stereo not given),"0.158 µM [falling, full curve]"
14,COc1cccc(OC)c1C1=NCC(=O)Nc2c1oc1ccc(Br)cc21,"7.94 µM [rising, partial curve]"
15,CCCCCCN=C(C)c1c(O)n(CCCC)c(=O)[nH]c1=O,"2 µM [rising, full curve]"
16,CC(C)(C)c1nc(N2CCN(C(=O)c3ccco3)CC2)c2nnn(Cc3ccccc3Cl)c2n1,"25.1 µM [falling, single point]"
17,N[C@@H](Cc1c[nH]c2ccccc12)c1nnc(SCc2ccc(Cl)cc2)o1,"2.51 µM [falling, full curve]"
18,COCCCn1c(N)c(C(=O)OCCOC)c2nc3ccccc3nc21,"10 µM [rising, partial curve]"

# Individual results from the list.
# CCCCCn1c(=O)c(C(=O)NCc2ccccn2)c(O)c2ccccc21 | AC50: 12.6 µM [rising, partial curve]
# O=c1c2ccccc2nc(-c2ccco2)n1-c1cccnc1 | AC50: 20 µM [rising, single point]
# Cc1cc2c(C(F)(F)F)cc(=O)oc2c2c1NCCC2 | AC50: 3.98 µM [rising, partial curve]

# Additional entries follow:

row,Structure (SMILES),AC50
1,Oc1ccc2c3c1O[C@H]1c4[nH]c5ccccc5c4C[C@]4(O)[C@H](C2)N(CC2CC2)CC[C@@]314,"15.8 µM [falling, partial curve, poor fit]"
2,CC(=NCCO)c1c(O)n(C2CCCCC2)c(=O)[nH]c1=O,"25.1 µM [rising, single point]"
3,CC(C)(C)c1cc(O)ccc1O,"20 µM [falling, single point] and 1 µM [falling, full curve, poor fit]"
4,COC[C@H]1OC(=O)c2coc3c2[C@@]1(C)C1=C(C3=O)[C@H]2CCC(=O)[C@@]2(C)C[C@H]1OC(C)=O,"0.0316 µM [falling, full curve, poor fit]"
5,O=C1N(CN2CCOCC2)c2ccccc2C1(O)c1c[nH]c2ccccc12 (stereo not given),"25.1 µM [falling, single point]"
6,CCOC(=O)c1c(N)n(Cc2ccccc2)c2nc3ccccc3nc12,"12.6 µM [rising, partial curve]"
7,CC(=O)O[C@@H]1CN2CCC1CC2,"31.6 µM [falling, single point]"
8,CCC(=NCCCN1CCOCC1)c1c(O)n(Cc2ccccc2)c(=O)[nH]c1=O,"1.58 µM [falling, partial curve]"
9,COC(=O)[C@H]1C(=O)[C@H](C(=O)OC)[C@@H]2CC[C@H]1N2C,"3.98 µM [rising, single point]"
10,COCCOC(=O)c1c(N)n(Cc2ccccc2)c2nc3ccccc3nc12,"12.6 µM [rising, single point]"
11,Cc1ccc(C)c(NC2=NCCCS2)c1,"5.01 µM [falling, single point]"
12,COC(=O)c1c(N)n(Cc2ccc(OC)cc2)c2nc3ccccc3nc12,"10 µM [rising, partial curve]"
13,NCCCP(=O)(O)CCc1ccccc1,"25.1 µM [rising, single point]"
14,CC(=NCc1ccc2c(c1)OCO2)c1c(O)n(C)c(=O)n(C)c1=O,"1 µM [rising, full curve, poor fit]"
15,COc1cc2c(cc1OC)-c1c(OC)c(OC)c(CO)c3c1[C@H](C2)N(C)CC3,"2 µM [rising, partial curve, poor fit]"
16,CC(=O)N1CCN(c2ccc(N=Cc3c(O)n(-c4ccc(Cl)cc4)c(=O)[nH]c3=O)cc2)CC1,"1 µM [rising, full curve, poor fit]"
17,CCc1nc2ccccc2c(=O)n1-c1cccc(OC)c1,"12.6 µM [rising, single point]"
